Laboratory results reported in publication doi:10.1101/2023.05.02.538526.

Experiments:
[1] = biological target: T1, tetraspanin CD82 (human (endogenous in C91-PL)) (UniProt P27701); assay: co-IP
T1 sequence: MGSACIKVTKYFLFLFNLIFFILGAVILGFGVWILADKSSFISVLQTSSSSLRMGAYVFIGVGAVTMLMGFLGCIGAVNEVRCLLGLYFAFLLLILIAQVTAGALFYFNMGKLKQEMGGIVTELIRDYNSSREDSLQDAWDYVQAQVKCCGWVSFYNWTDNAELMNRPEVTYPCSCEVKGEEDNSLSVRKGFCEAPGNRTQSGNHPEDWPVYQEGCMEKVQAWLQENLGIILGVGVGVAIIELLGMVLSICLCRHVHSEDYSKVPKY

[2] = biological target: T2, tetraspanin CD81 (human (endogenous in C91-PL)) (UniProt P60033); assay: co-IP
T2 sequence: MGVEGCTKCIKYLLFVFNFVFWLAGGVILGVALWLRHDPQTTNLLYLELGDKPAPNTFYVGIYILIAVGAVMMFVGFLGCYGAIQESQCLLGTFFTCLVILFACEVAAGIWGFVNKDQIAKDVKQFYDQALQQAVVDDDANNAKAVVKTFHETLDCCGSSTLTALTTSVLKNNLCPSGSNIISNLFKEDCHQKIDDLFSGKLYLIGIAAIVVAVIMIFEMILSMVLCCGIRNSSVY

With HTLV-1 Gag the binding [1] was “binds” and the binding [2] was “no binding”.

Results are given in words; binding and its absence hold for the method and conditions named. Binding seen in cells or lysates may run through a third protein. For some assays here: Binding can be weak; no strength is given.
